# According to the supplement of paper PMC8256030:
# Where “and” joins values, the source holds several entries; their conditions need not be identical. Identical values can stand only once. Some of the results follow. This data set is noisy: repeats of one test often differ as much as different tests do.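 HEK293T cells were given each compound shortly before transfection with a reporter in which red mCherry is followed by the SARS-CoV-2 frameshift element and then GFP in the −1 frame, so GFP appears only after frameshifting.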
# System: HEK293T
# Test: percent viability (nuclei count) relative to control; higher = more viable cells
# Details: 10 µM; 24 h
row,Compound,percent viability
1,CC(C)CC(=O)N[C@H](C(=O)N[C@H](C(=O)N[C@@H](CC(C)C)[C@@H](O)CC(=O)N[C@@H](C)C(=O)N[C@@H](CC(C)C)[C@@H](O)CC(=O)O)C(C)C)C(C)C [pepstatin],129%
2,CC(C)[C@@H](C)/C=C/[C@@H](C)[C@H]1CC[C@H]2/C(=C/C=C3\C[C@@H](O)CC[C@@H]3C)CCC[C@]12C [Antitanil],208%
3,CC(C)COCC(CN(Cc1ccccc1)c1ccccc1)N1CCCC1 (centres undefined) [bepridil],347% and 305%
4,Cc1ccc(Cl)c(Nc2ccccc2C(=O)O)c1Cl,238%
5,CCN(CC)CCc1nc(-c2ccccc2)no1,340%
6,CN1CCN(C2=Nc3cc(Cl)ccc3Nc3ccccc32)CC1,136%
7,C=CC[C@@H]1/C=C(\C)C[C@H](C)C[C@H](OC)[C@H]2O[C@@](O)(C(=O)C(=O)N3CCCC[C@H]3C(=O)O[C@H](/C(C)=C/[C@@H]3CC[C@@H](O)[C@H](OC)C3)[C@H](C)[C@@H](O)CC1=O)[C@H](C)C[C@@H]2OC [Tacrolimus],388%
8,C[C@H](N)C(=O)N[C@@H](C)C(=O)N[C@H]1[C@@H]2CN(c3nc4c(cc3F)c(=O)c(C(=O)O)cn4-c3ccc(F)cc3F)C[C@@H]21 [alatrofloxacin],275%
9,CCN(CC)C(=O)C1(c2ccccc2)CC1CN (centres undefined),154%
10,C[C@@H](O[C@H]1OCCN(Cc2nn(P(=O)(O)O)c(=O)[nH]2)[C@H]1c1ccc(F)cc1)c1cc(C(F)(F)F)cc(C(F)(F)F)c1 [Fosaprepitant],264%
11,Cc1nc(=O)c2cc(CN(C)c3ccc(C(=O)N[C@@H](CCC(=O)O)C(=O)O)s3)ccc2[nH]1 [raltitrexed],167%
12,Cc1cc(CC(C)CC(C)(C)C)n(O)c(=O)c1 (centres undefined),63.7%
13,C=C1CC[C@H](O)C/C1=C/C=C1\CCC[C@]2(C)[C@@H]([C@H](C)/C=C/[C@H](C)C(C)C)CC[C@@H]12 [ergocalciferol],314%
14,O=C(CCCCC(=O)Nc1c(I)cc(I)c(C(=O)O)c1I)Nc1c(I)cc(I)c(C(=O)O)c1I,128%
15,COc1ccc(CCN(C)CCCC(C#N)(c2ccc(OC)c(OC)c2)C(C)C)cc1OC (centres undefined) [verapamil],180% and 314%
16,COC(=O)N/N=C/c1c[n+]([O-])c2ccccc2[n+]1[O-] [Carbadox],69.6%
17,O=C1OC2(C3=C[C](Br)C([O-])=C=C3Oc3cc([O-])c(Br)cc32)c2ccccc21.[Hg+].[Na+].[Na+].[OH-] (centres undefined),167%
18,CCCCCCCCCCOc1cc2c(O)c(C(=O)OCC)cnc2cc1OCC [decoquinate],242%
19,CC1/C=C/C=C/C=C/C=C/C=C/C=C/C=C/C(OC2O[C@H](C)[C@@H](O)[C@H](N)[C@@H]2O)CC(O)C(C(=O)O)C(O)CC(=O)CC(O)CC(O)CC(O)CC(=O)CCCC(=O)CC(=O)OC1C(C)CC(C)C(O)CC(=O)c1ccc(N)cc1 (some centres undefined),138%
20,CC(C(=O)O)c1ccc(CC2CCCC2=O)cc1 (centres undefined),323%

row,Compound,percent viability
1,C[C@@H]1C[C@H]2[C@@H]3C[C@H](F)C4=CC(=O)C=C[C@]4(C)[C@H]3[C@@H](O)C[C@]2(C)[C@H]1C(=O)CO [Fluocortolone],68.6%
2,CC1(C)S[C@@H]2[C@H](NC(=O)Cc3ccccc3)C(=O)N2[C@H]1C(=O)O,131%
3,O=C(NN1CCCCCC1)NS(=O)(=O)c1ccc(Cl)cc1 [glypinamide],166%
4,CN1C(CSCC(F)(F)F)Nc2cc(Cl)c(S(N)(=O)=O)cc2S1(=O)=O (centres undefined) [polythiazide],265%
5,C=CC1=C(C(=O)O)N2C(=O)[C@@H](NC(=O)/C(=N\OCC(=O)O)c3csc(N)n3)[C@H]2SC1 [cefixime],134%
6,CC1=C(CC(=O)O)c2cc(F)ccc2/C1=C\c1ccc([S+](C)[O-])cc1 (centres undefined),147%
7,CCCCCCCCCCCCCCCCNc1ccc(C(=O)O)cc1 [cetaben],85.7%
8,Cc1ccc(C(C)C)c(O)c1 [Thymol],259%
9,O=C(O)c1cc(O)c2c3nc4ccccc4oc-3cc(=O)c2n1 [pirenoxine],243%
10,NC(N)=NC(N)=NCCc1ccccc1,113%
11,CN(CCOP(=O)(O)O)C(=N)N [creatinolfosfate],164%
12,OC[C@@H](O)[C@@H](O)CO,376%
13,CC(C)c1cc(C(C)C)c(-c2csc(N(CCN(C)C)Cc3cccnc3)n2)c(C(C)C)c1 [foropafant],228%
14,COc1ccc2c(c1)c(-c1ccccc1)nc(=O)n2CC1CC1 [ciproquazone],188%
15,CC1CNc2c(cccc2S(=O)(=O)N[C@@H](CCCNC(=N)N)C(=O)N2CC[C@@H](C)C[C@@H]2C(=O)O)C1 (some centres undefined) [Argatroban],126% and 290%
16,CC1=C(C)C(=O)C(C(CCCCCC(=O)O)c2ccccc2)=C(C)C1=O (centres undefined) [seratrodast],137%
17,COc1cc(C(=O)NS(=O)(=O)c2ccccc2C)ccc1Cc1cn(C)c2ccc(NC(=O)OC3CCCC3)cc12 [Zafirlukast],152%
18,OCCOCCN1CCN(C2=Nc3ccccc3Sc3ccccc32)CC1 [quetiapine],405% and 241%
19,O=C(O)c1cc(=O)c2c(OCC(O)COc3cccc4oc(C(=O)O)cc(=O)c34)cccc2o1,132%
